Values of other authors as cited in US12612577B2, “Perfumed compositions, process of preparing thereof and uses” (MINASOLVE SAS, priority 2019, dated 2026).
Some results were stated once for a whole list of compounds, not compound by compound.

Conditions: weak antimicrobial agents, only effective at high concentrations

For CC(O)CO (stereo not shown) [propylene glycol], which effective antimicrobial concentration is on record?
Its effective antimicrobial concentration is “more than 10%”.
